No constants are given. Whether binding was seen depends on the method and setting. Some results given as binding are weak or reduced against the parent protein; the word gives no strength. One block for each binder: values may come before it.
Assays:
Assay in all cases: SEC; α (His6) and untagged β co-expressed in E. coli and co-purified by metal chelation and gel filtration (Superdex200; 20 mM Tris-HCl, 0.2 M NaCl, 10% glycerol, pH 7.4); 150- to 200-kDa complex in solution (Fig. S1; the text does not say how the size was estimated); both purified
[1] = target: α-subunit of CumDO-O (CumA1) K141A (Pseudomonas fluorescens IP01) (UniProt Q51743)
[2] = target: α-subunit of CumDO-O (CumA1) R39A (Pseudomonas fluorescens IP01) (UniProt Q51743)
[3] = target: α-subunit of CumDO-O (CumA1) L241A (Pseudomonas fluorescens IP01) (UniProt Q51743)
[4] = target: α-subunit of CumDO-O (CumA1) K258A (Pseudomonas fluorescens IP01) (UniProt Q51743)
[5] = target: α-subunit of CumDO-O (CumA1) W159A (Pseudomonas fluorescens IP01) (UniProt Q51743)
[6] = target: α-subunit of CumDO-O (CumA1) R407A (Pseudomonas fluorescens IP01) (UniProt Q51743)
[7] = target: α-subunit of CumDO-O (CumA1) K33A (Pseudomonas fluorescens IP01) (UniProt Q51743)
[8] = target: α-subunit of CumDO-O (CumA1) D253A (Pseudomonas fluorescens IP01) (UniProt Q51743)
[9] = target: α-subunit of CumDO-O (CumA1) E180A (Pseudomonas fluorescens IP01) (UniProt Q51743)
[10] = target: α-subunit of CumDO-O (CumA1) (Pseudomonas fluorescens IP01) (UniProt Q51743)
[11] = target: α-subunit of CumDO-O (CumA1) K117A (Pseudomonas fluorescens IP01) (UniProt Q51743)
[12] = target: α-subunit of CumDO-O (CumA1) L35A (Pseudomonas fluorescens IP01) (UniProt Q51743)
[13] = target: α-subunit of CumDO-O (CumA1) L162A (Pseudomonas fluorescens IP01) (UniProt Q51743)
[14] = target: α-subunit of CumDO-O (CumA1) D158A (Pseudomonas fluorescens IP01) (UniProt Q51743)

B1: β-subunit of CumDO-O (CumA2) (protein, UniProt Q51744 1-186)
chain: MTSADLTKPIEWPEMPVSLELQNAVEQFYYREAQLLDYQNYEAWLALLTQDIQYWMPIRTTHTSRNKAMEYVPPGGNAHFDETYESMRARIRARVSGLNWTEDPPSRSRHIVSNVIVRETESAGTLEVSSAFLCYRNRLERMTDIYVGERRDILLRVSDGLGFKIAKRTILLDQSTITANNLSQFF
binding [1]: binds
binding [2]: binds
binding [3]: binds
binding [4]: binds
binding [5]: binds
binding [6]: binds
binding [7]: binds
binding [8]: binds
binding [9]: binds
binding [10]: binds
binding [11]: binds
binding [12]: binds
binding [13]: binds
binding [14]: binds

B2: β-subunit of CumDO-O (CumA2) L98A (protein, UniProt Q51744 1-186)
chain: MTSADLTKPIEWPEMPVSLELQNAVEQFYYREAQLLDYQNYEAWLALLTQDIQYWMPIRTTHTSRNKAMEYVPPGGNAHFDETYESMRARIRARVSGANWTEDPPSRSRHIVSNVIVRETESAGTLEVSSAFLCYRNRLERMTDIYVGERRDILLRVSDGLGFKIAKRTILLDQSTITANNLSQFF
binding [10]: binds

Next, values leading:

binding [10]: binds
B3: β-subunit of CumDO-O (CumA2) R65A (protein, UniProt Q51744 1-186)
chain: MTSADLTKPIEWPEMPVSLELQNAVEQFYYREAQLLDYQNYEAWLALLTQDIQYWMPIRTTHTSANKAMEYVPPGGNAHFDETYESMRARIRARVSGLNWTEDPPSRSRHIVSNVIVRETESAGTLEVSSAFLCYRNRLERMTDIYVGERRDILLRVSDGLGFKIAKRTILLDQSTITANNLSQFF

binding [10]: binds
B4: β-subunit of CumDO-O (CumA2) W100A (protein, UniProt Q51744 1-186)
chain: MTSADLTKPIEWPEMPVSLELQNAVEQFYYREAQLLDYQNYEAWLALLTQDIQYWMPIRTTHTSRNKAMEYVPPGGNAHFDETYESMRARIRARVSGLNATEDPPSRSRHIVSNVIVRETESAGTLEVSSAFLCYRNRLERMTDIYVGERRDILLRVSDGLGFKIAKRTILLDQSTITANNLSQFF
